Laboratory results as given in the supplement of paper PMC12819154, “High-throughput peptide-centric local stability assay extends protein–ligand identification to membrane proteins, tissues and bacteria” (Nature Structural & Molecular Biology, 2025).
The other results are listed elsewhere or left out. Most values lie at the level of the controls, where differences are scatter.

Amino acid sequences for entries named in this document (tags omitted). A change or cut given only in a name is not applied to a line headed by its entry.
UniProt Q15050: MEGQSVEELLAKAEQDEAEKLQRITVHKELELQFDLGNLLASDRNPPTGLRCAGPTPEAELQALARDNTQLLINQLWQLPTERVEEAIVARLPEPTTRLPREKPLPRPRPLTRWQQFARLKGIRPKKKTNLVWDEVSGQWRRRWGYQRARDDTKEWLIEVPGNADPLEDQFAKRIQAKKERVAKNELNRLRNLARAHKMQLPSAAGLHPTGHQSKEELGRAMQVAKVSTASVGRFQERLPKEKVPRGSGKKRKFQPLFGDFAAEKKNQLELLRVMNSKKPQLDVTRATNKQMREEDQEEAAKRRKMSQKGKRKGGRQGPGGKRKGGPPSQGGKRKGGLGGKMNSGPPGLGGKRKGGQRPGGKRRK
UniProt Q15327: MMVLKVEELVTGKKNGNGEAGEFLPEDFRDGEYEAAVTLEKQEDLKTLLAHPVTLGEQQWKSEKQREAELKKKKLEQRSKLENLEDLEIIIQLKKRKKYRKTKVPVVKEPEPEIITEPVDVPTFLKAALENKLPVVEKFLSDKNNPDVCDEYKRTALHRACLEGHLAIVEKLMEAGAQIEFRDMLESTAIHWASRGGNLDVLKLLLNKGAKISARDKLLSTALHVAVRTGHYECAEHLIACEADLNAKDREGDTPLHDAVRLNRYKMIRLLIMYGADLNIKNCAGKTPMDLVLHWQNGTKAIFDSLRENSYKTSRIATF
UniProt Q15121, whole entry: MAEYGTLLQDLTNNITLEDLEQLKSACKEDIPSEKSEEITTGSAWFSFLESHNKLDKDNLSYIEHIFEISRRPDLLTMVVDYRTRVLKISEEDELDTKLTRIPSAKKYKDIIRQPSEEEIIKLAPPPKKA
UniProt Q1ZZU3: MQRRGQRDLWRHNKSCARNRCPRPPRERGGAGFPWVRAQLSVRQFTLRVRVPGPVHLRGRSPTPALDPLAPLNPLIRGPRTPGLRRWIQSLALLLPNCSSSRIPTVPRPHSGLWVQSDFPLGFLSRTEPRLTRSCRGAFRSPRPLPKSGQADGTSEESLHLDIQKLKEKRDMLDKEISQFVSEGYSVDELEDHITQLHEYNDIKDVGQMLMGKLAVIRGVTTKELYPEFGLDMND
UniProt Q15181: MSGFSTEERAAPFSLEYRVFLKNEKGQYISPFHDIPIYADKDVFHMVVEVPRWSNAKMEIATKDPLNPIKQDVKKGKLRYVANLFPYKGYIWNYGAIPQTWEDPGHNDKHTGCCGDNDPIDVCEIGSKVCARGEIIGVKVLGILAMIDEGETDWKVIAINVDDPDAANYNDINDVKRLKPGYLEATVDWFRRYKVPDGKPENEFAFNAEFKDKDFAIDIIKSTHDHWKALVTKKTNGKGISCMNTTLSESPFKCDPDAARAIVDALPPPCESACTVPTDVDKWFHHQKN
UniProt Q2QGD7: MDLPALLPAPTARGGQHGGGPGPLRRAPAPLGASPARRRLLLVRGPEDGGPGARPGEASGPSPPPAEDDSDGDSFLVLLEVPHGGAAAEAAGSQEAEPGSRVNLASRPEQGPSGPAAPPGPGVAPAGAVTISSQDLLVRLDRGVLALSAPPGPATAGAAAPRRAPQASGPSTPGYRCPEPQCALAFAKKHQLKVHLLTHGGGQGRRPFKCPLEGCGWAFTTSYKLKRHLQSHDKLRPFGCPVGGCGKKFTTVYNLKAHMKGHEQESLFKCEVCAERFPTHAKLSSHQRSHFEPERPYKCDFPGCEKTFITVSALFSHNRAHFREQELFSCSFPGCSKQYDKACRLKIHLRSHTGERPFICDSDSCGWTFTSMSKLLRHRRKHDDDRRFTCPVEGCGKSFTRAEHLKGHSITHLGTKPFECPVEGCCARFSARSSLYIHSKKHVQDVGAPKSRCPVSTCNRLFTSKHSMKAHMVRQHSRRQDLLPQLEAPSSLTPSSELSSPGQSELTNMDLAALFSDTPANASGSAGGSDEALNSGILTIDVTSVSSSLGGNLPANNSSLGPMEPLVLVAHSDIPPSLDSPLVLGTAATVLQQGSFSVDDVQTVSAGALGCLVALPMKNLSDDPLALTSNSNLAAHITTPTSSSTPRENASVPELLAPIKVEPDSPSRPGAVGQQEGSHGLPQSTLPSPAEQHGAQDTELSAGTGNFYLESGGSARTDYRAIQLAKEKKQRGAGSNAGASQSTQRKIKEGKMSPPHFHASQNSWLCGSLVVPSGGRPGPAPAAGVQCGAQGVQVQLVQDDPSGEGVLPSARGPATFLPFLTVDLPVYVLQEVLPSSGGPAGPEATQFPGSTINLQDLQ
UniProt Q16718, whole entry: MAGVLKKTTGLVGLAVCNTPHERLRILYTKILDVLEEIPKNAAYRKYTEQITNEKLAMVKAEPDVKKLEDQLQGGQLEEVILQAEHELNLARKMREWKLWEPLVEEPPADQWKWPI
UniProt Q2M1P5: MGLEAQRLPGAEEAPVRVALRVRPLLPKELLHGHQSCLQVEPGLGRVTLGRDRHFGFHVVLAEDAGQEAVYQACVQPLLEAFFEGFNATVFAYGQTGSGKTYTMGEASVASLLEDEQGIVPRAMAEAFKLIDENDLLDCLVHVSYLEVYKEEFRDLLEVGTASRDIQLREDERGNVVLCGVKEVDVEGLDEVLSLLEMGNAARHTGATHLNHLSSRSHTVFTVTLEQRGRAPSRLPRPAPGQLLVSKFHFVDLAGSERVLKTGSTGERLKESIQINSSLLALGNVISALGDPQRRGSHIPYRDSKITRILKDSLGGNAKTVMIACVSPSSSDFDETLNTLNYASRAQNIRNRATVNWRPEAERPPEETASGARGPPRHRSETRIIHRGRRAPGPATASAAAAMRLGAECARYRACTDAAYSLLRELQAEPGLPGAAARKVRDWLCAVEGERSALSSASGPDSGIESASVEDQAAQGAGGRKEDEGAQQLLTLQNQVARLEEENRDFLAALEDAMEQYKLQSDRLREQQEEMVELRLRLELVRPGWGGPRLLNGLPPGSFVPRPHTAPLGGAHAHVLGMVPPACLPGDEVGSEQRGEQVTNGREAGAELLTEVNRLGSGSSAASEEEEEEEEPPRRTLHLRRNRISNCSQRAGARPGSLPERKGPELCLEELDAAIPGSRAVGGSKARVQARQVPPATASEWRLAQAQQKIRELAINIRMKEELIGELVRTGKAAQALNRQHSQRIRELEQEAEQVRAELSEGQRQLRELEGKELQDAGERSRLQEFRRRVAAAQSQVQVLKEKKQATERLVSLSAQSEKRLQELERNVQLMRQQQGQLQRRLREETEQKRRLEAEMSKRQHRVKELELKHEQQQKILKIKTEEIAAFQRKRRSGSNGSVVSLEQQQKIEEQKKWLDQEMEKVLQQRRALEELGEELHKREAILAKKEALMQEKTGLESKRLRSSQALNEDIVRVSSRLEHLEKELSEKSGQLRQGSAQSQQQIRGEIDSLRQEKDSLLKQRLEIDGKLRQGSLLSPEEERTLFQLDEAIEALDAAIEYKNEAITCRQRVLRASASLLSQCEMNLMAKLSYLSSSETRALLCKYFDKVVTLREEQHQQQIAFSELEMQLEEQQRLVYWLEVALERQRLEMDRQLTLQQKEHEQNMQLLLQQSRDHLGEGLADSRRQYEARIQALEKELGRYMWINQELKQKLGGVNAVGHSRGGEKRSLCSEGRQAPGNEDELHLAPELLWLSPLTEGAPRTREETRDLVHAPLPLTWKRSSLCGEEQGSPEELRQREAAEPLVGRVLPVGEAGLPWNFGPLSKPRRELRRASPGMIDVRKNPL
UniProt Q3BBV2: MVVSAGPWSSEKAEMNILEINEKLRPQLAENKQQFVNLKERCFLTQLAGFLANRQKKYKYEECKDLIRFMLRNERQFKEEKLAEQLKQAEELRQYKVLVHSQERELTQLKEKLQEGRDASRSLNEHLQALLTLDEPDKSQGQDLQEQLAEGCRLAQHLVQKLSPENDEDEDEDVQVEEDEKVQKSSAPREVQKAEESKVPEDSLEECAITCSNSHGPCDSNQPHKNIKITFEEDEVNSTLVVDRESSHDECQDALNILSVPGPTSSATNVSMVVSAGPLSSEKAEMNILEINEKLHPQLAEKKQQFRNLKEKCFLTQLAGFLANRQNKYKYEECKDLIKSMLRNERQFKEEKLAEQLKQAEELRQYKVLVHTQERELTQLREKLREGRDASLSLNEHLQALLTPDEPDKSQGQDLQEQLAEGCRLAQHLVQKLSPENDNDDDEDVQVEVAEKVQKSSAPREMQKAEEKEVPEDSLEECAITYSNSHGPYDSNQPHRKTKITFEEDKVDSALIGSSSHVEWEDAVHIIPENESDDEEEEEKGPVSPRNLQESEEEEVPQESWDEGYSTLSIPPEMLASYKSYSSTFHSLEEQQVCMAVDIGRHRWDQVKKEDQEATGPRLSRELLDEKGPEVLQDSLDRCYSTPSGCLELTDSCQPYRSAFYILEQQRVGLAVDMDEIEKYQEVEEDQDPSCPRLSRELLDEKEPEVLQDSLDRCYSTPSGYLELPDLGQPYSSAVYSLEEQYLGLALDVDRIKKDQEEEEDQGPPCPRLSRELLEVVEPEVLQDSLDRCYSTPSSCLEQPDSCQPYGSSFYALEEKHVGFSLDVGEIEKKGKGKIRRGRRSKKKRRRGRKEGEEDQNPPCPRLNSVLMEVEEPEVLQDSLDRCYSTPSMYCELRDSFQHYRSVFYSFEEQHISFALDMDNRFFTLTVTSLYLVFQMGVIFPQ
UniProt Q15773: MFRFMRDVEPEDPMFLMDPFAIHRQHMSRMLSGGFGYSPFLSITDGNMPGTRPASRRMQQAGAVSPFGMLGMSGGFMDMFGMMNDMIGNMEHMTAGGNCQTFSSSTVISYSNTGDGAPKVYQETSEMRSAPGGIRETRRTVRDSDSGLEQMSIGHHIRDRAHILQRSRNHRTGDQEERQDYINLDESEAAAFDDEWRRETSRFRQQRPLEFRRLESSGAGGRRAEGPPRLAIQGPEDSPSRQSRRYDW
UniProt Q3KRA6: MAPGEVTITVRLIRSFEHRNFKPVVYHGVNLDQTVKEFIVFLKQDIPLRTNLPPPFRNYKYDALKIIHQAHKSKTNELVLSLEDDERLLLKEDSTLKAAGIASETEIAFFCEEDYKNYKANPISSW
UniProt Q15008: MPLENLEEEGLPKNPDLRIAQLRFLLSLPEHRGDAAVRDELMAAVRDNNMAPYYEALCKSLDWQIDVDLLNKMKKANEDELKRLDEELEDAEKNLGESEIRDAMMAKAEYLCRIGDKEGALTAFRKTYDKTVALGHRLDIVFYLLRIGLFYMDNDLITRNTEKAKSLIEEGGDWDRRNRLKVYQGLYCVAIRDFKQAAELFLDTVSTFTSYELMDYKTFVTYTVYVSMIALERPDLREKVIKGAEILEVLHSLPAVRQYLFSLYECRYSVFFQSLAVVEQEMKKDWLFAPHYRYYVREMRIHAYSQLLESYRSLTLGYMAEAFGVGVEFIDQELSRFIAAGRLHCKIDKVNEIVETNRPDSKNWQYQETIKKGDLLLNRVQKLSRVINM
UniProt Q15814: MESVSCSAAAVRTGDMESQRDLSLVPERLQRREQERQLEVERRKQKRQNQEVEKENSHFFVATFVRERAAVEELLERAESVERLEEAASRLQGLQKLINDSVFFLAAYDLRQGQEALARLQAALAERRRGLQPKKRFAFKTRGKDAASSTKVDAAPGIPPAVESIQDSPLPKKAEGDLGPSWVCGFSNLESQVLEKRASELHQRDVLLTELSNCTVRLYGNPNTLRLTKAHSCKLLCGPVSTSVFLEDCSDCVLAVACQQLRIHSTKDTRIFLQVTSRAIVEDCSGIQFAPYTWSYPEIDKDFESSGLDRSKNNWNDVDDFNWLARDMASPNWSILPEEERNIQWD
UniProt Q16514: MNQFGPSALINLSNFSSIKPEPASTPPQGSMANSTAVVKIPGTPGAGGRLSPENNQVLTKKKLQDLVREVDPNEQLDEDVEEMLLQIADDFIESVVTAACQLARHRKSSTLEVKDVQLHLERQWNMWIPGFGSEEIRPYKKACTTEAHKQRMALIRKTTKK
UniProt Q16537, whole entry: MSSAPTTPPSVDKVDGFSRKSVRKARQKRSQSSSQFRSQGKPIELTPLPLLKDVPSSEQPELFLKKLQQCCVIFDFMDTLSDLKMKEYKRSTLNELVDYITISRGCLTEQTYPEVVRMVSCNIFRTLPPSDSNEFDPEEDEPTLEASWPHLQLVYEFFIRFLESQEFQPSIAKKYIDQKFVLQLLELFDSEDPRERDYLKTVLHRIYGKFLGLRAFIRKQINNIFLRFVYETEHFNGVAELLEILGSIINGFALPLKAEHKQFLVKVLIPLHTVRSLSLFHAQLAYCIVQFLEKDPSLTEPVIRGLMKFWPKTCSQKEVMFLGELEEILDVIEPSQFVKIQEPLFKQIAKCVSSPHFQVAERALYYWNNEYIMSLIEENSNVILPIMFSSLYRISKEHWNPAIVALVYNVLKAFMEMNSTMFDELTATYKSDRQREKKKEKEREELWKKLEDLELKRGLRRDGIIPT

Each target was assayed with Cc1nc(Nc2ncc(C(=O)Nc3c(C)cccc3Cl)s2)cc(N2CCN(CCO)CC2)n1 [dasatinib] (assay: log2 fold change of tryptic peptide abundance, ligand vs vehicle (limited proteolysis) (log2 ratio); higher = more trypsin-susceptible (destabilized)). Settings: ligand concentration: 5 uM; sample: K562 cleared lysate.

Question: For “POLD3 (peptide sequence: SNLQNCSK, peptide start residue: 124) (UniProt Q15054)”, which log2 fold change is on record?
Answer: 0.192

Question: “RRS1 (peptide sequence: KTNLVWDEVSGQWRR, peptide start residue: 128) (UniProt Q15050)” was tested. Which log2 fold change did it give?
Answer: -1.84

Question: With “UniProt Q15327 (peptide sequence: QREAELK, peptide start residue: 65)” as the target, how does the log2 fold change read?
Answer: 0.0175

Question: For “EIF4H (peptide sequence: TVATPLNQVANPNSAIFGGARPR, peptide start residue: 217) (UniProt Q15056)”, which log2 fold change is on record?
Answer: 0.23

Question: “NCOA2 (peptide sequence: AAMKPGWEDLVR, peptide start residue: 290) (UniProt Q15596)” was tested. Which log2 fold change did it give?
Answer: 0.585

Question: Which log2 fold change does the source give for “PEA15 (peptide sequence: RPDLLTMVVDYR, peptide start residue: 72) (UniProt Q15121)” here?
Answer: 0.116

Question: How did the log2 fold change turn out when “SWI5 (peptide sequence: DVGQMLMGK, peptide start residue: 205) (UniProt Q1ZZU3)” was run?
Answer: -0.0701

Question: “PPA1 (peptide sequence: DKDFAIDIIK, peptide start residue: 212) (UniProt Q15181)” was tested. Which log2 fold change did it give?
Answer: -0.167

Question: “UniProt Q2QGD7 (peptide sequence: GGQHGGGPGPLR, peptide start residue: 14)” was tested. Which log2 fold change did it give?
Answer: -1.02

Question: How did the log2 fold change turn out when “NDUFA5 (peptide sequence: KTTGLVGLAVCNTPHER, peptide start residue: 7) (UniProt Q16718)” was run?
Answer: 0.381

Question: For “UniProt Q2M1P5 (peptide sequence: MKEELIGELVR, peptide start residue: 719)”, which log2 fold change is on record?
Answer: -0.0349

Question: How did the log2 fold change turn out when “ELAVL1 (peptide sequence: FAANPNQNK, peptide start residue: 183) (UniProt Q15717)” was run?
Answer: 0.0828

Question: How did the log2 fold change turn out when “UniProt Q3BBV2 (peptide sequence: HVGFSLDVGEIEKK, peptide start residue: 817)” was run?
Answer: -0.0955

Question: For “SLC39A14 (peptide sequence: DQEEGVMEK, peptide start residue: 268) (UniProt Q15043)”, which log2 fold change is on record?
Answer: 0.0972

Question: How did the log2 fold change turn out when “UniProt Q16825 (peptide sequence: PGLAQDPPGCPR, peptide start residue: 737)” was run?
Answer: 0.587

Question: How did the log2 fold change turn out when “CDC37 (peptide sequence: EYEEEER, peptide start residue: 277) (UniProt Q16543)” was run?
Answer: 0.0906

Question: With “MLF2 (peptide sequence: VYQETSEMR, peptide start residue: 120) (UniProt Q15773)” as the target, how does the log2 fold change read?
Answer: -0.0523

Question: With “C2orf76 (peptide sequence: EFIVFLK, peptide start residue: 37) (UniProt Q3KRA6)” as the target, how does the log2 fold change read?
Answer: 0.436

Question: How did the log2 fold change turn out when “PSMD6 (peptide sequence: VNEIVETNRPDSK, peptide start residue: 350) (UniProt Q15008)” was run?
Answer: -0.995

Question: With “NCOA1 (peptide sequence: SEILPASLQSATARPTSR, peptide start residue: 847) (UniProt Q15788)” as the target, how does the log2 fold change read?
Answer: -0.0777

Question: “UniProt Q15042 (peptide sequence: LQMLNCCIERK, peptide start residue: 517)” was tested. Which log2 fold change did it give?
Answer: -0.326

Question: With “TBCC (peptide sequence: GKDAASSTK, peptide start residue: 143) (UniProt Q15814)” as the target, how does the log2 fold change read?
Answer: 1.25

Question: With “E2F4 (peptide sequence: AEIEELQQR, peptide start residue: 102) (UniProt Q16254)” as the target, how does the log2 fold change read?
Answer: -0.142

Question: Which log2 fold change does the source give for “TAF12 (peptide sequence: IPGTPGAGGR, peptide start residue: 40) (UniProt Q16514)” here?
Answer: -0.203

Question: “SHB (peptide sequence: TWSPTACGGKK, peptide start residue: 209) (UniProt Q15464)” was tested. Which log2 fold change did it give?
Answer: -0.517

Question: How did the log2 fold change turn out when “ARL6IP1 (peptide sequence: FHEICSNLVK, peptide start residue: 105) (UniProt Q15041)” was run?
Answer: -0.129

Question: How did the log2 fold change turn out when “JOSD1 (peptide sequence: EVGGAYYNLDSK, peptide start residue: 145) (UniProt Q15040)” was run?
Answer: 0.329

Question: With “PPP2R5E (peptide sequence: LEDLELKR, peptide start residue: 450) (UniProt Q16537)” as the target, how does the log2 fold change read?
Answer: 0.464

Question: For “UAP1L1 (peptide sequence: QALLTQHYR, peptide start residue: 425) (UniProt Q3KQV9)”, which log2 fold change is on record?
Answer: 0.494
